Test results published in the supplement of paper PMC10338343.
± gives the standard deviation. The list shows a part of the results, in another mix than the full data. Many entries were measured with a wide error. This is one part of the list.

Key:
[1] = tested on: MILI (PIWIL2) piRISC loaded with L1MC piRNA (26 nt); assay: pre-steady-state target cleavage rate (min^-1); higher = faster piRNA-guided slicing of the target; details: guide: L1MC piRNA 5'p-UAACUAAAUACUAUGCAAGCUGUAGG
Method in brief: (§1)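 Cleave-'n-Seq: 1 nM active affinity-purified piRISC with one synthetic guide and 0.1 nM transcribed, DNA-blocked target RNA library were mixed, with or without 500 nM GTSF1 partner protein, in HEPES–potassium acetate buffer at 33 °C for 0–8 or 0–960 min. Uncleaved targets were sequenced and normalised to depth and to weakly complementary targets, three trials were pooled, and k3 was capped at 0.0001 min^-1. The pre-steady-state cleavage rate was fitted […].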

[2] = tested on: EfPiwi piRISC loaded with L1MC piRNA (26 nt); assay: pre-steady-state target cleavage rate (min^-1); guide: L1MC piRNA 5'p-UAACUAAAUACUAUGCAAGCUGUAGG; MIWI and MILI are mouse PIWI proteins and EfPiwi is from a freshwater sponge; tags in brackets are library labels; higher = faster piRNA-guided slicing of the target
Method in brief: as §1

[3] = auxiliary factor: none (no GTSF1)
[4] = auxiliary factor: 500 nM Ephydatia muelleri Gtsf1
[5] = auxiliary factor: none (no Gtsf1)

Sequence | pre-steady-state target cleavage rate [1, 3] | pre-steady-state target cleavage rate [2, 4] | pre-steady-state target cleavage rate [2, 5] | pre-steady-state target cleavage rate ([1]; auxiliary factor: 500 nM mouse GTSF1)
UCCUGGAUGAGCUUGCAUACAAUUUAGAAA | 0.000512 ± 0.013 | 0.000583 ± 0.0056 | 0.000533 ± 0.015 | –
UCCUGGAACACGUUGCAUAGUAUUUAGUAA | 0.00299 ± 0.0037 | 0.00365 ± 0.0034 | 0.000754 ± 0.013 | –
UCCUGGAUGAGCUUGCAUAGUAAUUAGUAA | 0.00185 ± 0.0052 | 0.00197 ± 0.0019 | 0.00119 ± 0.0091 | –
UCCUGGUUGAGCUUGCAUAGUAUUUUCAAA | 0.00151 ± 0.0044 | 0.00218 ± 0.0021 | 0.000287 ± 0.034 | –
UCCUGGAUCAGCUUGCAUAGUAUAAUGUUA | 0.00279 ± 0.0033 | 0.0022 ± 0.0027 | 0.000729 ± 0.012 | –
UCCUGGAUGUGCUUGCAUAGUAUAAUGUUA | 0.00136 ± 0.0057 | 0.000537 ± 0.0088 | 0.000343 ± 0.023 | –
UCCUGGAUGAGCUUGCAUAAUAUUUAGUUA | 0.00207 ± 0.0034 | 0.00543 ± 0.0021 | 0.00136 ± 0.0088 | –
UCCUGCUACACCUUGCAUAGAAUUUAGUUA | 0.000785 ± 0.0086 | 0.00207 ± 0.0023 | 0.000406 ± 0.016 | –
UCCUGCUACAGCUUGCUUAGUAUUUAGAUA | 0.00112 ± 0.0051 | 0.00495 ± 0.0028 | 0.000297 ± 0.023 | –
UCCUGGAUGUGCUUGCAUAGAAUUUAGUAA | 0.000958 ± 0.0066 | 0.00215 ± 0.0051 | 0.000253 ± 0.034 | –
UCCUGGAACAGCUUGCAAAGUAUUUUGUUA | 0.00159 ± 0.0041 | 0.0012 ± 0.0036 | 0.000322 ± 0.025 | –
UCCUGGAUGUCGUUGCAUAGUAAUUAGUAA | 0.00172 ± 0.0038 | 0.000428 ± 0.009 | 0.000261 ± 0.03 | –
UCCUGCUAGAGCUUGCAUAGUAUUUAGAAA | 0.00127 ± 0.005 | 0.00419 ± 0.0022 | < 0.0001 | –
UCCUGCUACACCUUGCAUAGUAUUAAGUUA | 0.00279 ± 0.0035 | 0.00618 ± 0.0036 | 0.000761 ± 0.0084 | –
UCCUGGAUGUCGUUGCAUAGUAUUUCGUUA | 0.00135 ± 0.0059 | 0.00062 ± 0.012 | 0.000174 ± 0.041 | –
UCCUGGAUGUCCUUGCAUAGUAUGUAGUUA | 0.00187 ± 0.004 | 0.00374 ± 0.0037 | 0.000633 ± 0.013 | –
UCCUGGAUGUCGAAGCAUAGUAUGUAGUUA | 0.00156 ± 0.004 | 0.000232 ± 0.019 | 0.000223 ± 0.031 | –
UCCUGGAACAGCUUGCAUAUAUUUAGUUA | 0.00209 ± 0.0037 | 0.00191 ± 0.0025 | 0.00124 ± 0.0068 | –
UCCUGCUACAGCUUGCAUAGUAUUUAGCUA | 0.000849 ± 0.0064 | 0.00339 ± 0.0014 | < 0.0001 | –
UCCUGGUACACCUUGCAUAGUAAUUAGUUA | – | 0.00464 ± 0.0027 | 0.000125 ± 0.064 | 0.491 ± 0.14
UCCUGGAACAGCUUGCAUAGUUAAUAGUAA | 0.00127 ± 0.0047 | 0.000547 ± 0.0088 | 0.000622 ± 0.012 | –
UCCUGCUUGAGCUUGCAUAGUAUUUACAAA | 0.00136 ± 0.0045 | 0.00279 ± 0.0023 | 0.000223 ± 0.02 | –
UCCUCCUACAGCUUGCAUACUAUUUAGAAA | 0.0012 ± 0.0043 | 0.00366 ± 0.0019 | 0.000397 ± 0.016 | –
UCCUGGAUGAGCUUGCAUAGUAUUUACAUA | 0.00121 ± 0.0049 | 0.00323 ± 0.0028 | 0.00036 ± 0.024 | –

Full records, quoted from the list. Order of values: pre-steady-state target cleavage rate [1, 3] | pre-steady-state target cleavage rate [2, 4] | pre-steady-state target cleavage rate [2, 5] | pre-steady-state target cleavage rate ([1]; auxiliary factor: 500 nM mouse GTSF1)
UCCUGGUACACCUUGCAUAGUAAUUAGUUA as listed: – | 0.00464 ± 0.0027 | 0.000125 ± 0.064 | 0.491 ± 0.14
UCCUGGAUGUGCUUGCAUAGUAUAAUGUUA as listed: 0.00136 ± 0.0057 | 0.000537 ± 0.0088 | 0.000343 ± 0.023 | –
